For at least one compound, name, drawing or mass did not settle the structure.
Legend:
[1] = Water retention evaluation (moisture reduction rate); assay type: physicochemical; settings: number of hydrated water based on final moisture content
Experimental: 80 wt. % aqueous solutions of the formulations (organic salts) of the working examples 428 to 459 and comparative examples 1 to 5 in Tables 2A and 2B were prepared, and the water contents were measured using a Karl Fischer moisture meter (CA-200 manufactured by Mitsubishi Chemical Analytech Co., Ltd.). It was confirmed that the water contents of them were 20.0 wt. % (moisture content before test: A). Each of the 1.0 g samples was added to a screw tube, and left uncovered to stand still for 24 hours in a constant temperature and humidity bath (KCL-2000W manufactured by Tokyo Rikakikai Co., Ltd.) which was set at 35° C. and 25% RH. Moisture contents after being left for 24 hours were measured again (moisture content after test: B) to evaluate their water retention property by using the following formula for calculating the moisture reduction rates. After that, it was left to stand still until the moisture content remained unchanged, and determinations of the hydrate and the number of hydrated water were made based on the final moisture contents. • Moisture content before test: A (%) • Moisture content after test: B (%)

[2] = cited from earlier work

N[C@@H](Cc1c[nH]cn1)C(=O)O.O=C(O)[C@H](O)[C@@H](O)[C@H](O)[C@H](O)CO [Formulation 93]
n-hydrate [1]: 1.5-

NCCCC(=O)O [aminobutyric acid]
isoelectric point [2]: 7.85

NCCCC[C@H](N)C(=O)O.O=C(O)[C@H](O)[C@@H](O)[C@H](O)[C@H](O)CO.O=C(O)[C@H](O)[C@@H](O)[C@H](O)[C@H](O)CO [Formulation 30]
n-hydrate [1]: 1.5-

Source: patent publication US20250186321A1, “FORMULATION USING AMINO ACID AND CARBOXYLIC ACID, ORGANIC SALT, AND COMPOSITION COMPRISING SAME AND USE THEREOF” (MIYOSHI OIL & FAT CO., LTD., priority 2021, published 2025)
